# Assay results: PubChem BioAssay AID624297 (National Center for Advancing Translational Sciences (NCATS), 2012)
# Hit rate of the full screen: of about 340,000 compounds, about 6,200 (1.8%) were called active. The inconclusive results got no clear call from the source; some entries with a clear call stand among them for comparison. Calls follow the shape of the dose curve; as a rule, active = well fitted activation curve with a large enough effect; inconclusive = small, poorly fitted or top-dose-only effect; inactive = no such curve, though single readings can be large or run the other way. Where the call is inconclusive, the potency comes from a doubtful curve fit.
# Assay: A quantitative high throughput screen for small molecules that induce DNA re-replication in SW480 colon adenocarcinoma cells. Also: nearly all actives have a fitted effect of over 55% in size. As to re-replication activation: % of control where 0% means no effect.
# Settings: Hoechst DNA content imaging, 48 h; re-replication activation: at 46.1 µM (top of the series) unless noted
# In short: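 First, 250 cells per well were seeded. Next, compound or vehicle (23 nL) was pinned in, plates sat 48 hr at 37 C. Finally Hoechst was added for 40 min before fluorescence scanning.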
# Potency is read from the fitted curve at half-maximal effect.
SMILES,Potency,re-replication activation
Cc1ccc(S(=O)(=O)NCc2csc(-c3cccs3)n2)cc1,inactive,
c1ccc(Cn2nnnc2C(c2cccs2)N2CCc3ccccc3C2)cc1 (configuration not stated),"inconclusive: 23.1 µM [activator, partial curve, poor fit]",
CCN1CCN(c2cc(C)c3cc(NC(=O)c4cc(OC)cc(OC)c4)ccc3n2)CC1,"inconclusive: 6.51 µM [activator, partial curve, poor fit]",
COc1ccc(-c2noc(-c3ccccc3C(=O)NCc3ccco3)n2)cc1OC,inactive,
CC(CNS(=O)(=O)c1ccccc1)(c1ccccc1)N1CCCCC1 (configuration not stated),active: 2.59 µM,
O=S(Cc1cc(Sc2ccccc2)nc(-c2ccccc2)n1)c1ccccc1 (configuration not stated),"inconclusive: 29.1 µM [activator, single point]",
CCOC(=O)N1CCC(n2c(SCC(=O)Nc3nccs3)nc3ccsc3c2=O)CC1,"inconclusive: 29.1 µM [activator, single point]",
Clc1ccc(Cn2ncc3c(N4CCCCC4)ncnc32)c(Cl)c1,inactive,
CCN(Cc1ccc2c(c1)OCO2)C(=O)CSc1ncnc2sccc12,inactive,
COc1cc(C(=O)OC(C)C(=O)NCC2CCCCC2)cc(NC(=O)c2ccco2)c1OC (configuration not stated),"inconclusive: 20.6 µM [activator, single point]",
COc1ccc(CCNC(=O)c2ccccc2C(=O)NCCc2ccc(OC)cc2)cc1,inactive,
CCCn1c(SCC(=O)Nc2ccccc2OC)nnc1-c1ccco1,active: 9.2 µM,
COc1cc(/C=N/NC(=O)c2ccc(N3CCCC3=O)cc2)ccc1O,"inconclusive: 23.1 µM [activator, single point]",
COc1ccc(N2CCN(C(CNC(=O)c3ccco3)c3ccco3)CC2)cc1 (configuration not stated),"inconclusive: 32.6 µM [activator, single point]",
COCCC(=O)N1CCC(Oc2ccc(C(=O)N3CCC[C@H]3CO)cc2)CC1,"inconclusive: 29.1 µM [activator, partial curve, poor fit]",
CCOC(=O)C(CC)Sc1nnc(COc2ccc(C)cc2)n1-c1ccccc1 (configuration not stated),"inconclusive: 29.1 µM [activator, single point]",
COc1ccc(C(=O)NC=C2C(=O)OC(C)(C)OC2=O)cc1,"inconclusive: 2.59 µM [activator, single point]",
COCCn1c(SCC(=O)Nc2cc(C(C)(C)C)nn2-c2ccccc2)nnc1-c1ccncc1,inactive,
COc1ccc(C(C)NC(=S)NCc2ccc(F)cc2)cc1 (configuration not stated),"inconclusive: 23.1 µM [activator, single point]",
CCCCCCCCCCCCCC(=O)NO,inactive,
CC1CCC(NC(=O)C2CCN(S(=O)(=O)c3cccc4nonc34)CC2)CC1 (configuration not stated),inactive,
COc1ccc(C(C(=O)NC2CCCCC2)N(C(=O)Cc2c[nH]c3ccccc23)c2ccccc2C)cc1OC (configuration not stated),inactive,
COc1ccc(NC(=O)c2cccc3ccccc23)cc1,"inconclusive: 13 µM [activator, partial curve, poor fit]",

# Molecules above that contain a furan ring, fused or not:
SMILES,Potency,re-replication activation
COc1ccc(-c2noc(-c3ccccc3C(=O)NCc3ccco3)n2)cc1OC,inactive,
COc1cc(C(=O)OC(C)C(=O)NCC2CCCCC2)cc(NC(=O)c2ccco2)c1OC (configuration not stated),"inconclusive: 20.6 µM [activator, single point]",
CCCn1c(SCC(=O)Nc2ccccc2OC)nnc1-c1ccco1,active: 9.2 µM,
COc1ccc(N2CCN(C(CNC(=O)c3ccco3)c3ccco3)CC2)cc1 (configuration not stated),"inconclusive: 32.6 µM [activator, single point]",

# Continued:

SMILES,Potency,re-replication activation
COc1cccc(N(C(C)=O)c2nc(C)cc(C)c2C#N)c1,"inconclusive: 6.51 µM [activator, single point]",
COc1ccc(-n2nc3c(N4CCC(C(=O)NCCc5ccco5)CC4)nnc(C)c3c2C)cc1,"inconclusive: 29.1 µM [activator, single point]",
CCOc1ccc(S(=O)(=O)NCC(c2ccc3c(c2)OCO3)N2CCN(C)CC2)cc1 (configuration not stated),active: 6.51 µM,
CN1C(=O)C2C(c3ccc(N(C)C)cc3)NN(Cc3ccccc3)C2C1=O (configuration not stated),inactive,
CCN(CC)CC(O)Cn1c(C)c(-c2ccccc2)c2cc([N+](=O)[O-])ccc21 (configuration not stated),"inconclusive: 23.1 µM [activator, single point]",
COC(=O)c1c(C)[nH]c(C(=O)CN2C(=O)C3CC=CCC3C2=O)c1C (configuration not stated),inactive,
Cc1ccc(NC(=O)CN(C)C(=O)COc2cccc3ccc(C)nc23)cc1,inactive,
CCOc1cccc(C2C(C#N)=C(N)Oc3cc(C)[nH]c(=O)c32)c1OCC (configuration not stated),inactive,
CC(=O)N1CCN(C(=S)c2ccc(-c3ccc(Cl)cc3)o2)CC1,inactive,
COCCNS(=O)(=O)c1cc(OC)ccc1OC,"inconclusive: 2.06 µM [activator, partial curve, poor fit]",
COc1ccc(-c2sc3cc(OC)c(OC)cc3c2C#CCCO)cc1,"inconclusive: 29.1 µM [activator, single point]",
COc1ccccc1C(=O)N1CCN(c2cccc(Cl)c2)CC1,"inconclusive: 3.66 µM [activator, full curve, poor fit]",
CCC(C)n1cnc2c(c1=O)c1nc3ccccc3nc1n2-c1ccc2c(c1)OCCO2 (configuration not stated),"inconclusive: 29.1 µM [activator, partial curve, poor fit]",
O=C(O)CCC/C=C\C[C@@H]1[C@@H](/C=C/[C@@H](O)COc2cccc(Cl)c2)[C@H](O)C[C@@H]1O,"inconclusive: 0.164 µM [activator, partial curve, poor fit]",
CSCCC(NC(=O)c1ccco1)C(=O)Nc1ccncc1 (configuration not stated),inactive,
CCN(CC)CCOC(=O)C12CC3CC(CC(C3)C1)C2,inactive,
CCc1ccccc1S(=O)(=O)Cc1ccc(C(=O)NCc2cccs2)o1,"inconclusive: 1.84 µM [activator, partial curve, poor fit]",
COc1ccc(N2CCN(CCOc3ccc4c(C)cc(=O)oc4c3)CC2)cc1,"inconclusive: 29.1 µM [activator, single point]",
O=CC(=O)c1ccccc1,"inconclusive: 0.259 µM [activator, partial curve, poor fit]",
COc1ccc(Cc2[nH]n3c(=O)c(Cl)c(C)nc3c2-c2ccccc2)cc1,"inconclusive: 29.1 µM [activator, single point]",
Cc1ccc(S(=O)(=O)NCc2cccnc2)cc1C(=O)N1CCCC1,"inconclusive: 0.92 µM [activator, full curve, poor fit]",
COc1cc(SC)ccc1C(=O)Nc1ncc(Cl)cc1Cl,"inconclusive: 23.1 µM [activator, single point]",
O=C(Cn1nc(C(=O)O)c2ccccc2c1=O)c1c[nH]c2ccccc12,"inconclusive: 9.2 µM [activator, single point]",

SMILES,Potency,re-replication activation
CC1CCCCC1NC(=O)C(Cc1ccccc1)NS(=O)(=O)c1cccs1 (configuration not stated),"inconclusive: 29.1 µM [activator, single point]",
O=C(CSc1nnc(-c2ccccc2O)o1)N1CCc2ccccc2C1,"inconclusive: 29.1 µM [activator, single point]",
CC(=O)Nc1ccc(S(=O)(=O)Nc2ccc(Cl)nn2)cc1,"inconclusive: 0.146 µM [activator, full curve, poor fit]",
Cc1nc(SC2CC(=O)N(c3ccccc3)C2=O)nc2c1CCCC2 (configuration not stated),"inconclusive: 20 µM [activator, single point]",
CCC(C(=O)NCC1CCCO1)N(C(=O)c1snc(C(N)=O)c1N)c1ccc(Cl)cc1 (configuration not stated),"inconclusive: 29.1 µM [activator, single point]",
COc1ccc(S(=O)(=O)N(C(=O)c2ccncc2)c2ccc3oc4c(c3c2)CCCC4)cc1,"inconclusive: 29.1 µM [activator, single point]",
CN(C)c1ccc(-c2n[nH]c(=S)n2-c2ccccc2)cc1,,inactive: -10.5% [at 1.84 µM]
O=C(COC(=O)c1ccc(S(=O)(=O)NCc2ccco2)cc1)NCc1ccc(F)cc1,"inconclusive: 2.31 µM [activator, single point]",
CCN(CC)CCC(=O)N1c2ccccc2Sc2ccc(NC(=O)OC)cc21,,inconclusive: 25.2% [activator]
CSc1nc(N)nc2c1ncn2CC(=O)NCC(c1ccccc1)c1ccccc1,"inconclusive: 0.291 µM [activator, full curve, poor fit]",
O=C(Nc1ccccc1)Nc1nncs1,"inconclusive: 0.058 µM [activator, full curve, poor fit]",
CC(C)CCn1c2ccccc2c2cc(CC(N)=O)ccc21,"inconclusive: 6.51 µM [activator, single point]",
COc1cccc(CCNC(=O)C2CCC(=O)N(Cc3cccc(OC)c3)C2)c1 (configuration not stated),"inconclusive: 29.1 µM [activator, single point]",
CC[C@@H](C(=O)[C@@H](C)[C@@H](O)[C@H](C)CCc1ccc(C)c(O)c1C(=O)O)[C@H]1O[C@](CC)([C@H]2CC[C@](O)(CC)[C@H](C)O2)C[C@@H]1C,"inconclusive: 0.366 µM [activator, partial curve, poor fit]",
COc1ccc(S(=O)(=O)N2CCC(C(=O)N(CC(C)C)C3CCS(=O)(=O)C3)CC2)cc1OC (configuration not stated),,inconclusive: -87.7% [activator]
O=C(N/N=C/c1ccc2c(c1)OCO2)c1cccc(NC(=O)c2ccccc2Cl)c1,"inconclusive: 29.1 µM [activator, single point]",
COC(=O)c1ccc(C(=O)NC(=S)Nc2nc3c(s2)CC(C)CC3)cc1 (configuration not stated),inactive,
CCOC(=O)c1cccc(C(=O)Nc2nc3ccc(OC)cc3s2)n1,inactive,
CCCCCC[n+]1c(-c2ccc(Cl)cc2Cl)csc1Nc1ccccc1,inactive,
Cc1cccc(NC(=O)CN2C(=O)S/C(=C\c3ccc(-c4cccc(C(=O)O)c4C)o3)C2=O)c1,"inconclusive: 2.59 µM [activator, full curve]",
Cc1cc(C)c(C(=O)/C=C/c2ccc(C(C)C)cc2)c(=O)[nH]1,"inconclusive: 20.6 µM [activator, single point]",
